Experimental data reported in patent US7947458B1, “Placental human neurokinin B precursor” (Perinatal Diagnostics Limited, priority 1999, dated 2011).

Key:
[1] = Radioimmunoassay of neurokinin B in extracted plasma; design: species or system human
[2] = Radioimmunoassay of neurokinin B in placental extracts; design: species or system human

neurokinin B [NKB]
plasma level of the peptide ([1]; non-pregnant volunteers): low levels | level of neurokinin B in the maternal blood stream ([1]; normal pregnancy, before near term): zero or very low levels | concentration of plasma NKB ([1]; normal pregnancy, maternal blood at or near term): ~100 picomolar | concentration of neurokinin B in maternal plasma ([1]; pregnancy induced hypertension or pre-eclampsia, late pregnancy/near term): nanomolar range | NKB content of placental extracts ([2]; early placenta): 21 pg/g | NKB content of placental extracts ([2]; term placenta): 25 pg/g
